No constants are given. Whether binding was seen depends on the method and setting. Some binding calls cover weakened binding; strength is not graded here.
T1: TMEM149 (human) (UniProt Q9H665)
T1 sequence (looked up): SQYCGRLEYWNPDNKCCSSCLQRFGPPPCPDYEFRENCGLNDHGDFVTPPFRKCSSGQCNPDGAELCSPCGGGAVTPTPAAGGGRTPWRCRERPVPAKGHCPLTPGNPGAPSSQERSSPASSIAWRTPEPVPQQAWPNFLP

The chains behind the UniProt entries cited, without tags or fusion partners. Residues count along the entry.
UniProt Q9HBE4, residues 32-162: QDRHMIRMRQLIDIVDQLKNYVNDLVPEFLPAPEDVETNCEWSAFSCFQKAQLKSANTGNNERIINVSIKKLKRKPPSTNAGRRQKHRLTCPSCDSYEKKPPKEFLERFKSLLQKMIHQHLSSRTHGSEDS
UniProt P04234, residues 22-105: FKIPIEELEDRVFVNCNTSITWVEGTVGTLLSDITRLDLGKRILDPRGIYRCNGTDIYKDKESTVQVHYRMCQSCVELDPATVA
UniProt P01375, residues 57-233: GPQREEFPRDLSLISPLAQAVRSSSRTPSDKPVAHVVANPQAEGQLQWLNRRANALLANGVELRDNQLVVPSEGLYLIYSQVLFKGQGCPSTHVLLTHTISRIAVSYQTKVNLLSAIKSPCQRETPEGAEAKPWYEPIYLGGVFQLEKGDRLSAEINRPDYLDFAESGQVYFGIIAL
UniProt Q02223, residues 1-54: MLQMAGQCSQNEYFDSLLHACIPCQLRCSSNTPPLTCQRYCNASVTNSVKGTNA
UniProt Q9UNG2, residues 49-177: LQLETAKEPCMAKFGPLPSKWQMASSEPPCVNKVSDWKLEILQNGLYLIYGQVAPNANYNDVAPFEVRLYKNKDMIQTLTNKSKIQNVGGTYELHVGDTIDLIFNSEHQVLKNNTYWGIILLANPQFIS

T2: CEACAM4 (human, UniProt O75871 36-155, limits assumed)
T2 construct: Recombinant human protein in ELISA
T2 sequence (looked up): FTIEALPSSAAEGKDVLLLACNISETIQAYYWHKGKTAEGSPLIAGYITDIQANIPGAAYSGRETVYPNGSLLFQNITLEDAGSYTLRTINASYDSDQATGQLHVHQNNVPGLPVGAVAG

T3: PROCR (human, UniProt Q9UNN8 18-210)
T3 construct: Recombinant human protein in ELISA and BLI
T3 sequence (looked up): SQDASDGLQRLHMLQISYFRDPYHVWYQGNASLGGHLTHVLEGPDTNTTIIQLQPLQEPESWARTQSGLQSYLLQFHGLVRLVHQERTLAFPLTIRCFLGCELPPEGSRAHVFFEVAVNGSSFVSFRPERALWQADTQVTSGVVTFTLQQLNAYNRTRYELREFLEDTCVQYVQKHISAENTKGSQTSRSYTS


The binders below were run against T1, TMEM149 (human) (assay: REAP, yeast-displayed human antigen library).

Row | binding | Binder
1 | binds | TMEM149_Nb3.446 (Fc fusion, not shown: a dimerising Fc or GST) QVQLQESGGGLVQAGGSLRLSCAASGNISYYAEMGWYRQAPGKEREFVAAIAWGANTYYADSVKGRFTISRDNAKNTVYLQMNSLKPEDTAVYYCAVYYDIPRNHFYWGQGTQVTVSS
2 | binds | TMEM149_Nb3.530 (Fc fusion, not shown: a dimerising Fc or GST) QVQLQESGGGLVQAGGSLRLSCAASGSIFLLDRMGWYRQAPGKEREFVAGIGYGGSTYYADSVKGRFTISRDNAKNTVYLQMNSLKPEDTAVYYCAAQTWDEDGYWSDYDYWGQGTQVTVSS

These binders were tested against T4, IL21 (human, UniProt Q9HBE4 32-162, limits assumed) (assay: REAP, yeast-displayed human antigen library).
T4 construct: Recombinant human protein in ELISA

Row | binding | Binder
3 | binds | IL21_Nb2.28 (Fc fusion, Nanobody expressed and tested as Fc fusion (human IgG1); not shown: human IgG1 Fc (vector pCER243)) QVQLQESGGGLVQAGGSLRLSCAASGSISNTYVMGWYRQAPGKERELVAAIGHGGTTYYADSVKGRFTISRDNAKNTVYLQMNSLKPEDTAVYYCAVYLSRVRKFYYWGQGTQVTVSS
4 | binds | IL21_Nb2.30 (Fc fusion, Nanobody expressed and tested as Fc fusion (human IgG1); not shown: human IgG1 Fc (vector pCER243)) QVQLQESGGGLVQAGGSLRLSCAASGTIFRETVMGWYRQAPGKERELVAAIDDGTSTYYADSVKGRFTISRDNAKNTVYLQMNSLKPEDTAVYYCAARASYTYGRLRFRYWGQGTQVTVSS
5 | binds | IL21 Nb2.29 (Fc fusion, Nanobody expressed and tested as Fc fusion (human IgG1); not shown: human IgG1 Fc (vector pCER243)) QVQLQESGGGLVQAGGSLRLSCAASGNISWGTIMGWYRQAPGKEREFVAAISHGANTNYADSVKGRFTISRDNAKNTVYLQMNSLKPEDTAVYYCAAQSRAGSTRPRYHKYWGQGTQVTVSS

What follows are binders tested against T5, CD3D (human, UniProt P04234 22-105) (assay: REAP, yeast-displayed human antigen library).
T5 construct: Recombinant human protein in ELISA

Row | binding | Binder
6 | binds | CD3D_Nb2.35 (Fc fusion, Nanobody expressed and tested as Fc fusion (human IgG1); not shown: human IgG1 Fc (vector pCER243)) QVQLQESGGGLVQAGGSLRLSCAASGTIFAYWYMGWYRQAPGKEREFVAAIGDGSSTYYADSVKGRFTISRDNAKNTVYLQMNSLKPEDTAVYYCAAEAPGYGHTYWGQGTQVTVSS
7 | binds | CD3D_Nb2.33 (Fc fusion, Nanobody expressed and tested as Fc fusion (human IgG1); not shown: human IgG1 Fc (vector pCER243)) QVQLQESGGGLVQAGGSLRLSCAASGSIFYAEYMGWYRQAPGKEREFVAAITAGSTTYYADSVKGRFTISRDNAKNTVYLQMNSLKPEDTAVYYCAADGYYYGIEFTYYEYWGQGTQVTVSS
8 | binds | CD3D_Nb2.34 (Fc fusion, Nanobody expressed and tested as Fc fusion (human IgG1); not shown: human IgG1 Fc (vector pCER243)) QVQLQESGGGLVQAGGSLRLSCAASGTISTLDYMGWYRQAPGKEREFVAAINYGSNTYYADSVKGRFTISRDNAKNTVYLQMNSLKPEDTAVYYCAAADVTRPAYDYWGQGTQVTVSS
9 | binds | CD3D_Nb2.36 (Fc fusion, Nanobody expressed and tested as Fc fusion (human IgG1); not shown: human IgG1 Fc (vector pCER243)) QVQLQESGGGLVQAGGSLRLSCAASGSISAYWAMGWYRQAPGKEREFVAAINFGANTYYADSVKGRFTISRDNAKNTVYLQMNSLKPEDTAVYYCAAERDGDYHDYWGQGTQVTVSS

These binders were tested against T2, CEACAM4 (assay: REAP, yeast-displayed human antigen library).

Row | binding | Binder
10 | binds | CEACAM4_Nb36 (Fc fusion, Nanobody expressed and tested as Fc fusion (human IgG1); not shown: human IgG1 Fc (vector pCER243)) QVQLQESGGGLVQAGGSLRLSCAASGNIFLGPYMGWYRQAPGKEREFVASINYGASTNYADSVKGRFTISRDNAKNTVYLQMNSLKPEDTAVYYCAAGYYSNDYYYYEYSYWGQGTQVTVSS
11 | binds | CEACAM4_Nb41 (Fc fusion, Nanobody expressed and tested as Fc fusion (human IgG1); not shown: human IgG1 Fc (vector pCER243)) QVQLQESGGGLVQAGGSLRLSCAASGTISRSSIMGWYRQAPGKEREFVAGISYGSTTYYADSVKGRFTISRDNAKNTVYLQMNSLKPEDTAVYYCAVRDLYVWDHAYWGQGTQVTVSS
12 | binds | CEACAM4_Nb40 (Fc fusion, Nanobody expressed and tested as Fc fusion (human IgG1); not shown: human IgG1 Fc (vector pCER243)) QVQLQESGGGLVQAGGSLRLSCAASGTISPGYGMGWYRQAPGKEREFVATIAFGSSTYYADSVKGRFTISRDNAKNTVYLQMNSLKPEDTAVYYCAVAIYIPYFFRYWGQGTQVTVSS

The binders below were run against T3, PROCR (assay: REAP, yeast-displayed human antigen library).

Row | Binder | binding
13 | PROCR_Nb83 (Fc fusion, Nanobody expressed and tested as Fc fusion (human IgG1); not shown: human IgG1 Fc (vector pCER243)) QVQLQESGGGLVQAGGSLRLSCAASGNISPTRFMGWYRQAPGKEREFVAAIDLGTTTNYADSVKGRFTISRDNAKNTVYLQMNSLKPEDTAVYYCAADWNGPWSFWYWGQGTQVTVSS | binds
14 | PROCR_Nb85 (Fc fusion, Nanobody expressed and tested as Fc fusion (human IgG1); not shown: human IgG1 Fc (vector pCER243)) QVQLQESGGGLVQAGGSLRLSCAASGNISVLVYMGWYRQAPGKERELVAAITTGTSTYYADSVKGRFTISRDNAKNTVYLQMNSLKPEDTAVYYCAADYYGPWYHQYWGQGTQVTVSS | binds
15 | PROCR_Nb87 (Fc fusion, Nanobody expressed and tested as Fc fusion (human IgG1); not shown: human IgG1 Fc (vector pCER243)) QVQLQESGGGLVQAGGSLRLSCAASGSISSYPYMGWYRQAPGKERELVASIASGTNTYYADSVKGRFTISRDNAKNTVYLQMNSLKPEDTAVYYCAADSTGPWSHVYWGQGTQVTVSS | binds

Now from value to binder:

Row | binding | Binder
16 | binds | PROCR_Nb90 (Fc fusion, Nanobody expressed and tested as Fc fusion (human IgG1); not shown: human IgG1 Fc (vector pCER243)) QVQLQESGGGLVQAGGSLRLSCAASGTISGGYNMGWYRQAPGKEREFVATIGDGSSTYYADSVKGRFTISRDNAKNTVYLQMNSLKPEDTAVYYCAAFNSAQYWYESPFRYWGQGTQVTVSS
17 | binds | PROCR_Nb88 (Fc fusion, Nanobody expressed and tested as Fc fusion (human IgG1); not shown: human IgG1 Fc (vector pCER243)) QVQLQESGGGLVQAGGSLRLSCAASGTIFKLGYMGWYRQAPGKEREFVATITTGATTYYADSVKGRFTISRDNAKNTVYLQMNSLKPEDTAVYYCAADTYGPWAYSYWGQGTQVTVSS
18 | binds | PROCR_Nb89 (Fc fusion, Nanobody expressed and tested as Fc fusion (human IgG1); not shown: human IgG1 Fc (vector pCER243)) QVQLQESGGGLVQAGGSLRLSCAASGTIFRDDNMGWYRQAPGKEREFVAAIGYGSTTNYADSVKGRFTISRDNAKNTVYLQMNSLKPEDTAVYYCAVRNTYWNLLQYWGQGTQVTVSS

What follows are binders tested against TNF (yeast-displayed human antigen, REAP library) (human) (UniProt P01375) (assay: REAP, nanobody-Fc on yeast-displayed human antigen library (REAP Binding to Targets)).

Row | binding | Binder
19 | binds | TNF_Nb105 (Fc fusion, Nanobody expressed as an Fc fusion protein (fused with human IgG1) in Expi293 cells; not shown: human IgG1 Fc; nanobodies expressed as Fc fusion from vector pCER243) QVQLQESGGGLVQAGGSLRLSCAASGTISVTYFMGWYRQAPGKERELVAGIGTGANTYYADSVKGRFTISRDNAKNTVYLQMNSLKPEDTAVYYCAAYIGAPVYGDGQSRNKAKVYDYWGQGTQVTVSS
20 | binds | TNF_Nb109 (Fc fusion, Nanobody expressed as an Fc fusion protein (fused with human IgG1) in Expi293 cells; not shown: human IgG1 Fc; nanobodies expressed as Fc fusion from vector pCER243) QVQLQESGGGLVQAGGSLRLSCAASGYISGEWFMGWYRQAPGKERELVAGISRGSTTYYADSVKGRFTISRDNAKNTVYLQMNSLKPEDTAVYYCAVYLTHKGYDGADGVVHHRYWGQGTQVTVSS

The binders below were run against TNFRSF17 (yeast-displayed human antigen, REAP library) (human) (UniProt Q02223) in the same assay as above.

Row | binding | Binder
21 | binds | TNFRSF17_Nb2.18 (Fc fusion, Nanobody expressed as an Fc fusion protein (fused with human IgG1) in Expi293 cells; not shown: human IgG1 Fc; nanobodies expressed as Fc fusion from vector pCER243) QVQLQESGGGLVQAGGSLRLSCAASGNIFRGWYMGWYRQAPGKEREFVATIASGGSTYYADSVKGRFTISRDNAKNTVYLQMNSLKPEDTAVYYCAVWDWEPGDYAYWGQGTQVTVSS
22 | binds | TNFRSF17_Nb2.19 (Fc fusion, Nanobody expressed as an Fc fusion protein (fused with human IgG1) in Expi293 cells; not shown: human IgG1 Fc; nanobodies expressed as Fc fusion from vector pCER243) QVQLQESGGGLVQAGGSLRLSCAASGTISHPTYMGWYRQAPGKEREFVAGISDGTNTYYADSVKGRFTISRDNAKNTVYLQMNSLKPEDTAVYYCAAITSWDYGYGYWGQGTQVTVSS
23 | binds | TNFRSF17_Nb2.21 (Fc fusion, Nanobody expressed as an Fc fusion protein (fused with human IgG1) in Expi293 cells; not shown: human IgG1 Fc; nanobodies expressed as Fc fusion from vector pCER243) QVQLQESGGGLVQAGGSLRLSCAASGTIFQYDYMGWYRQAPGKEREFVAAIAYGGNTNYADSVKGRFTISRDNAKNTVYLQMNSLKPEDTAVYYCAAWSWRRSRAYWGQGTQVTVSS
24 | binds | TNFRSF17_Nb2.23 (Fc fusion, Nanobody expressed as an Fc fusion protein (fused with human IgG1) in Expi293 cells; not shown: human IgG1 Fc; nanobodies expressed as Fc fusion from vector pCER243) QVQLQESGGGLVQAGGSLRLSCAASGYISRYDYMGWYRQAPGKERELVAAINSGASTYYADSVKGRFTISRDNAKNTVYLQMNSLKPEDTAVYYCAVRSWGLDDYAYWGQGTQVTVSS
25 | binds | TNFRSF17_Nb2.20 (Fc fusion, Nanobody expressed as an Fc fusion protein (fused with human IgG1) in Expi293 cells; not shown: human IgG1 Fc; nanobodies expressed as Fc fusion from vector pCER243) QVQLQESGGGLVQAGGSLRLSCAASGTIFSDYMGWYRQAPGKEREFVATIAVGSITYYADSVKGRFTISRDNAKNTVYLQMNSLKPEDTAVYYCAVWDASWADYAYWGQGTQVTVSS

Each binder was assayed against TNFSF18 (yeast-displayed human antigen, REAP library) (human) (UniProt Q9UNG2) in the same assay as above.

Row | binding | Binder
26 | binds | TNFSF18_Nb101 (Fc fusion, Nanobody expressed as an Fc fusion protein (fused with human IgG1) in Expi293 cells; not shown: human IgG1 Fc; nanobodies expressed as Fc fusion from vector pCER243) QVQLQESGGGLVQAGGSLRLSCAASGYIFDDYGMGWYRQAPGKERELVATINAGANTNYADSVKGRFTISRDNAKNTVYLQMNSLKPEDTAVYYCAVYYGPYYRYLDPYLYWGQGTQVTVSS
27 | binds | TNFSF18_Nb93 (Fc fusion, Nanobody expressed as an Fc fusion protein (fused with human IgG1) in Expi293 cells; not shown: human IgG1 Fc; nanobodies expressed as Fc fusion from vector pCER243) QVQLQESGGGLVQAGGSLRLSCAASGNISDPPFMGWYRQAPGKERELVAGISWGASTYYADSVKGRFTISRDNAKNTVYLQMNSLKPEDTAVYYCAAVTTDFGAYPFAYWGQGTQVTVSS
28 | binds | TNFSF18_Nb96 (Fc fusion, Nanobody expressed as an Fc fusion protein (fused with human IgG1) in Expi293 cells; not shown: human IgG1 Fc; nanobodies expressed as Fc fusion from vector pCER243) QVQLQESGGGLVQAGGSLRLSCAASGNISWVYWMGWYRQAPGKERELVAGIATGGSTNYADSVKGRFTISRDNAKNTVYLQMNSLKPEDTAVYYCAVVASNGSRFWYWGQGTQVTVSS
29 | binds | TNFSF18_Nb98 (Fc fusion, Nanobody expressed as an Fc fusion protein (fused with human IgG1) in Expi293 cells; not shown: human IgG1 Fc; nanobodies expressed as Fc fusion from vector pCER243) QVQLQESGGGLVQAGGSLRLSCAASGSIFYVIAMGWYRQAPGKERELVATITAGTNTYYADSVKGRFTISRDNAKNTVYLQMNSLKPEDTAVYYCAVYALQQDVYDRSHAYWGQGTQVTVSS

Source: US20230416942A1 (YALE UNIVERSITY, published 2023)
